Data published in publication PMC8977021, “bZIP transcription factors PcYap1 and PcRsmA link oxidative stress response to secondary metabolism and development in Penicillium chrysogenum”.
For some assays here: No signal at the amounts used counts as a negative. For some assays here: Construct, isoform or probe ends are uncertain for at least one entry.

Key:
[1] = target: PcAtf21 del319-319 (UniProt B6HLX5); experiment: EMSA; conditions: LightShift binding buffer 1X, about 10% glycerol, 5 mM MgCl2, 20 fmol biotin probe, 10 ug protein, 20 uL, room temperature 20 min; 5% native PAGE in 0.5X TBE; recombinant protein; residues 1-318; protein details: C-terminal c-myc-6xHis; label: 3' biotin; probe letters rebuilt from the primers and the genome
[2] = tested on: PcYap1 + PcRsmA; experiment: EMSA; conditions: both proteins, supershift, simultaneous binding to separate sites; LightShift binding buffer 1X, about 10% glycerol, 5 mM MgCl2, 20 fmol biotin probe, 10 ug protein, 20 uL, room temperature 20 min; 5% native PAGE in 0.5X TBE; recombinant protein; protein details: C-terminal c-myc-6xHis,C-terminal c-myc-6xHis; label: 3' biotin; probe letters rebuilt from the primers and the genome

Row | Sequence | binding result [1] | binding result [2]
1 | AACGACGGCGATGTTCCAAGGTAAACCGGCACGTAGAAAATGTCCGGACCACCTTGGCTCTCGTTGCAGCGTGTTGAATCTTCAGCCACCATAAGTCGATAGCATCCGGTTAGAGTGCAACGTGGGTCTGTCTCATTCTTCTCGGTTCTTGGCACCAGAATCGGGCGTAGTTTGCCCACTGCCAAG (double strand) [probe 3] | no binding | 
2 | TGTTTATGCTGAGACAACCTGGAGACATTATACGCTTGCAGCCCAGATGCTTACTGGATGGGGCCGCTGGAGCCAGTGTAAAATTAGTAACCGTATCTC (double strand) [upPta1] |  | binds
3 | ATGGAGATTGGCCAGGTCAGCCATATATACCCTGCAATGGCAGACCAATGCAGCAGGCCCAGTATAAGGAATTCCCCTCGAGCTTGTCTGTGATTGCGTTTTTTCTAACACTTGTTGTTGCATCCGATCCGTCCCTACCAATTATTGGTCATTGACAGAGATGACTCAACTGAAGCCACCGAACGGAACCACGCCGAT (double strand) [probe 1] | no binding | 
4 | TTGCCCACTGCCAAGTCGCGGGGCCGCTTGGCTGTCCTTGTGGTGGGATTTCCCGATGCAACATGCAGATACATGTAGTCGACAGTTGACAGAGCCAATGGCATCGGATCTGCCGTAGACCGTGCTAGACGAAAGTCTCCATCTTGTCTGCGGGCAGTGCTTCAGTCGCCCAGATTCTCGATGGAGATTGGCCAG (double strand) [probe 2] | no binding | 
5 | ATGTCTCCAGGTTGTCTCAGCATAAACACCCCGCCCCCGCTCAGGCACACAGGAAGAGAGCTCAGGTCGTTTCCATTGCGTCCATACTCTTCACTCATTGTCATCTGCAGGAGAACTTCCCCTGTCCCTTTGCCAAGCCCTCTCTTCGTCGTTGTCCACGCCTTCAAGTTTTCACCATTATTTTTCTAGACACCATGGCTTCC (double strand) [probe 6] | no binding | 
